Among the data in PubChem BioAssay AID200 (DTP/NCI, 2004) are T/C and survivor count values, retold here.

The assay relates to B6C3F1 mice, B16 melanoma ip, median survival T/C. Kind of assay: NCI In Vivo Anticancer Drug Screen. Data for tumor model B16 Melanoma (intraperitoneal) in B6C3F1 mice. The conditions noted are these: T/C endpoint: median survival time, higher T/C = longer survival. The method in brief: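 Values are T/C ratios: the measurement in treated animals divided by that in vehicle-treated controls, using survival or tumor size in mice carrying transplantable tumors.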

[1] abbreviates: dose: 1.25 mg/kg/injection, schedule: Q01DX009 (ip), vehicle: water.
Where [2] appears, read: dose: 50.0 mg/kg/injection, schedule: Q01DX009 (ip), vehicle: water.

SMILES strings stand for the structures. The list is a part of this screen's results and no random one: it gathers tests that were run many times, whatever their T/C, doses with no T/C, and many T/C values between a quarter and a half above the control. Further doses and runs are listed elsewhere. T/C gives the treated animals as a percentage of the vehicle group. Some doses have a count of surviving animals in place of a T/C: the source files T/C as zero there, which appears to mark a toxic dose or a test without result, not a measured value. Some survivor counts are full or nearly so, which does not show that the dose was tolerated: survival well below the control is almost never listed, so the zero probably covers shortened survival too. Counts of survivors are from the toxicity check (mostly the fifth day) where no day follows; animals may have died later. Schedule codes are those of the source, read here as Q, the interval in days (D) or hours (H), X, the number of doses. Some entries were tested several times; their values stand side by side, smallest first. Where survival is the endpoint, this PubChem deposit counts one and a half times the control or more as active, and values a quarter to a half above the control carry no call in these data; other NCI protocols may use other cut-offs. Some T/C values are followed by the survivors on the day toxicity was checked, most often the fifth; where none is given, no animal had died by that day.

As to `COC(=O)NC1C(C)OC(OC2C/C=C(/C)C3C=CC4C(OC5CC(OC6CCC(OC7CC(O)C(OC8CCC(O)C(C)O8)C(C)O7)C(C)O6)C(OC(C)=O)C(C)O5)C(C)CC(C)C4C3(C)/C(O)=C3/C(=O)OC4(CC(C=O)=CC(O)C4/C=C\2C)C3=O)CC1(C)[N+](=O)[O-]` (centres undefined), the T/C was 126 % of control (dose: 0.76 mg/kg/injection, schedule: Q03HX024 (ip), vehicle: water); 140 % of control (dose: 1.13 mg/kg/injection, schedule: Q03HX024 (ip), vehicle: water); 133 % of control under setting [1]; 146 % of control (dose: 1.53 mg/kg/injection, schedule: Q03HX008 (ip), vehicle: water); 148 % of control (dose: 2.0 mg/kg/injection, schedule: Q01DX009 (ip), vehicle: water); 129 % of control (dose: 2.28 mg/kg/injection, schedule: Q03HX008 (ip), vehicle: water). Besides, the T/C runs as follows: (dose: 2.4 mg/kg/injection, schedule: Q01DX005 (ip), vehicle: water) 142 % of control; (dose: 2.5 mg/kg/injection, schedule: Q01DX009 (ip), vehicle: water, evaluated on day 45) 132 % of control; (dose: 2.5 mg/kg/injection, schedule: Q01DX009 (ip), vehicle: water, evaluated on day 60) 130, 153 [9 of 10 alive], 154 % of control; (dose: 3.0 mg/kg/injection, schedule: Q01DX009 (ip), vehicle: water) 130 [7 of 8 alive] and 145 % of control; (dose: 3.6 mg/kg/injection, schedule: Q01DX005 (ip), vehicle: water) 143 and 147 % of control; (dose: 4.5 mg/kg/injection, schedule: Q01DX009 (ip), vehicle: water) 133 % of control. Besides, the T/C is, setting by setting: (dose: 5.0 mg/kg/injection, schedule: Q01DX009 (ip), vehicle: water, evaluated on day 45) 175 % of control; (dose: 5.0 mg/kg/injection, schedule: Q01DX009 (ip), vehicle: water, evaluated on day 60) 135, 155, 158 % of control; (dose: 5.3 mg/kg/injection, schedule: Q01DX005 (ip), vehicle: water) 132 % of control [9 of 10 alive]; (dose: 6.0 mg/kg/injection, schedule: Q01DX005 (ip), vehicle: water) 137 % of control; (dose: 6.1 mg/kg/injection, schedule: Q04DX003 (ip), vehicle: water) 142 % of control; (dose: 6.7 mg/kg/injection, schedule: Q01DX009 (ip), vehicle: water) 138 % of control. For the same compound, the T/C by setting is: (dose: 9.0 mg/kg/injection, schedule: Q01DX005 (ip), vehicle: water) 142 % of control; (dose: 10.0 mg/kg/injection, schedule: Q01DX009 (ip), vehicle: water, evaluated on day 45) 154 % of control; (dose: 10.0 mg/kg/injection, schedule: Q01DX009 (ip), vehicle: water, evaluated on day 60) 121, 146, 153, 179, 191 % of control; (dose: 12.0 mg/kg/injection, schedule: Q01DX005 (ip), vehicle: water) 149 % of control [9 of 10 alive]; (dose: 15.0 mg/kg/injection, schedule: Q01DX009 (ip), vehicle: water) 143 % of control; (dose: 18.0 mg/kg/injection, schedule: Q01DX001 (iv), vehicle: water) 126 % of control. In addition, the survivor count is recorded as 10 of 10 under setting [1]; 2 of 10 (dose: 7.58 mg/kg/injection, schedule: Q03HX008 (ip), vehicle: water); 0 of 10 (dose: 8.4 mg/kg/injection, schedule: Q03HX024 (ip), vehicle: water); 0 of 10 (dose: 11.3 mg/kg/injection, schedule: Q03HX008 (ip), vehicle: water); 0 of 10 (dose: 16.88 mg/kg/injection, schedule: Q03HX008 (ip), vehicle: water); 2 of 10 (dose: 18.0 mg/kg/injection, schedule: Q01DX005 (ip), vehicle: water). In addition, the survivor count (dose: 20.0 mg/kg/injection, schedule: Q01DX009 (ip), vehicle: water) is reported as 2 of 10, 3 of 10, 6 of 10, 7 of 10; the survivor count (dose: 27.0 mg/kg/injection, schedule: Q01DX005 (ip), vehicle: water) is 0 of 10 and 1 of 10; the survivor count (dose: 30.0 mg/kg/injection, schedule: Q01DX005 (ip), vehicle: water) is 2 of 10; the survivor count (dose: 30.2 mg/kg/injection, schedule: Q04DX003 (ip), vehicle: water) was 10 of 10; the survivor count (dose: 40.0 mg/kg/injection, schedule: Q01DX009 (ip), vehicle: water) is 0 of 10; the survivor count (dose: 40.0 mg/kg/injection, schedule: Q01DX009 (sc), vehicle: water) is recorded as 6 of 10. The survivor count (dose: 45.0 mg/kg/injection, schedule: Q04DX003 (ip), vehicle: water) is 8 of 10; the survivor count (dose: 60.3 mg/kg/injection, schedule: Q01DX001 (ip), vehicle: water) is given as 1 of 10; the survivor count (dose: 60.3 mg/kg/injection, schedule: Q01DX001 (iv), vehicle: water) is reported as 2 of 10; the survivor count (dose: 90.0 mg/kg/injection, schedule: Q01DX001 (ip), vehicle: water) is given as 0 of 9; the survivor count (dose: 90.0 mg/kg/injection, schedule: Q01DX001 (iv), vehicle: water) is reported as 0 of 10; the survivor count (dose: 135.0 mg/kg/injection, schedule: Q01DX001 (ip), vehicle: water) is 0 of 10.
Consider `[CH3][Sn]([CH3])([Cl])[S]CCN`, for which the survivor count by setting is: (dose: 25.0 mg/kg/injection, schedule: Q01DX009 (ip), vehicle: saline) 10 of 10; (dose: 50.0 mg/kg/injection, schedule: Q01DX009 (ip), vehicle: saline) 6 of 10.
`COCCCNC1=C(C#N)C(=O)NC(c2cccc([N+](=O)[O-])c2)S1` (centres undefined): the T/C is, setting by setting: (dose: 12.5 mg/kg/injection, schedule: Q01DX009 (ip), vehicle: saline with Tween-80, evaluated on day 40) 135 % of control; (dose: 12.5 mg/kg/injection, schedule: Q01DX009 (ip), vehicle: saline with Tween-80, evaluated on day 45) 100 and 106 % of control; (dose: 12.5 mg/kg/injection, schedule: Q01DX009 (ip), vehicle: saline with Tween-80, evaluated on day 60) 106 % of control; (dose: 25.0 mg/kg/injection, schedule: Q01DX009 (ip), vehicle: saline with Tween-80, evaluated on day 40) 118 % of control; (dose: 25.0 mg/kg/injection, schedule: Q01DX009 (ip), vehicle: saline with Tween-80, evaluated on day 45) 113 and 120 % of control; (dose: 25.0 mg/kg/injection, schedule: Q01DX009 (ip), vehicle: saline with Tween-80, evaluated on day 60) 98 % of control. Besides, the survivor count runs as follows: (dose: 200.0 mg/kg/injection, schedule: Q01DX009 (ip), vehicle: saline with Tween-80) 10 of 10; (dose: 400.0 mg/kg/injection, schedule: Q01DX009 (ip), vehicle: saline with Tween-80) 9 of 10.
As to `NC(CNC(=O)CBr)C(=O)O` (centres undefined), the T/C (dose: 12.5 mg/kg/injection, schedule: Q01DX009 (ip), vehicle: water) was 135 % of control; the T/C (dose: 25.0 mg/kg/injection, schedule: Q01DX009 (ip), vehicle: water) was 134, 138 [9 of 10 alive], 147 % of control; the T/C under setting [2] is 137 % of control. The survivor count reads like this: under setting [2], 8 of 10; (dose: 100.0 mg/kg/injection, schedule: Q01DX009 (ip), vehicle: water) 3 of 10 and 4 of 10.
Consider `c1ccc(CN2CCOC2)cc1`, for which the survivor count reads like this: (dose: 200.0 mg/kg/injection, schedule: Q01DX009 (ip), vehicle: saline) 1 of 10; (dose: 400.0 mg/kg/injection, schedule: Q01DX009 (ip), vehicle: saline) 0 of 10.
